Cell number after 72 h of treatment

Data from the primary screen of doi:10.1371/journal.pone.0140310, rounded.

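Human melanoma cells were exposed to two drugs together for 72 h in 1,536-well plates and read by automated microscopy after fixing and staining. The read-out is cell count (nuclei) in % of the DMSO control; lower values mean stronger growth inhibition or killing. Concentrations were fixed for each drug; these are the lower of two levels, a fifth of the higher. These are primary screening values without error estimates.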 This is part of the screen, not chosen by result. An entry leaves out what has no value listed here.

First drug in all entries: GSK650394, 0.16 µM, O=C(O)c1ccc(-c2c[nH]c3ncc(-c4ccccc4)cc23)cc1C1CCCC1

- CCCCCCCCCCCCCCCCCCOP(=O)([O-])OC1CC[N+](C)(C)CC1 at 0.4 µM : A2058: 85.8; A375: 86.8; A101D: 104; C32: 104
- CCCS(=O)(=O)Nc1ccc(F)c(C(=O)c2c[nH]c3ncc(Cl)cc23)c1F at 0.08 µM : A2058: 89.5; A375: 63.8; A101D: 79.4; C32: 86.8
- C[C@]1(c2nc3c(C(N)=O)cccc3[nH]2)CCCN1 at 1.4 µM : A2058: 93.8; A375: 84.8; A101D: 80.6; C32: 76.6
- COCC[n+]1c2c(n(Cc3cnccn3)c1C)C(=O)c1ccccc1C2=O at 0.0004 µM : A2058: 53.4; A375: 72.5; A101D: 83.6; C32: 121
- CN(c1ncccc1CNc1nc(Nc2ccc3c(c2)CC(=O)N3)ncc1C(F)(F)F)S(C)(=O)=O at 0.08 µM : A2058: 80.5; A375: 94.1; A101D: 105; C32: 111
- Cn1nnc2c(C(N)=O)ncn2c1=O at 2 µM : A2058: 75.0; A375: 83.9; A101D: 90.3; C32: 90.5
- O=C(O)c1ccc2c(c1)nc(Nc1cccc(Cl)c1)c1ccncc12 at 0.4 µM : A2058: 90.1; A375: 89.7; A101D: 92.1; C32: 109
- C=C(c1ccc(C(=O)O)cc1)c1cc2c(cc1C)C(C)(C)CCC2(C)C at 2 µM : A2058: 109; A375: 104; A101D: 113; C32: 119
- C#Cc1cccc(Nc2ncnc3cc(OCCOC)c(OCCOC)cc23)c1 at 0.8 µM : A2058: 104; A375: 89.2; A101D: 90.7; C32: 89.6
- C[C@@H](N)c1ccc(C(=O)Nc2ccnc3[nH]ccc23)cc1 at 0.4 µM : A2058: 82.3; A375: 71.3; A101D: 89.9; C32: 80.1
- O=C(O)[C@@H]1[O][Sb](=[O])([O][Sb]2(=[O])[O][C@H]([C@H](O)CO)[C@H](O)[C@H](C(=O)O)[O]2)[O][C@H]([C@H](O)CO)[C@@H]1O (some centres not stated) at 2 µM : A2058: 103; A375: 103; A101D: 105; C32: 91.9
- Cc1cc(Nc2cc(N3CCN(C)CC3)nc(Sc3ccc(NC(=O)C4CC4)cc3)n2)n[nH]1 at 0.006 µM : A2058: 94.1; A375: 113; A101D: 86.9; C32: 86.0
- Cn1c(Nc2ccc(C(F)(F)F)cc2)nc2cc(Oc3ccnc(-c4ncc(C(F)(F)F)[nH]4)c3)ccc21 at 0.08 µM : A2058: 84.5; A375: 52.2; A101D: 58.8; C32: 72.7
- Cn1cc(C2=C(c3cn(C4CCN(Cc5ccccn5)CC4)c4ccccc34)C(=O)NC2=O)c2ccccc21 at 0.8 µM : A2058: 102; A375: 87.4; A101D: 82.6; C32: 102
- CNC(=O)c1cc(Oc2ccc(NC(=O)Nc3ccc(Cl)c(C(F)(F)F)c3)cc2)ccn1 at 0.4 µM : A2058: 89.1; A375: 87.2; A101D: 95.9; C32: 96.0
- NC(=O)Nc1cc(-c2cccc(F)c2)sc1C(=O)N[C@H]1CCCNC1 at 0.02 µM : A2058: 104; A375: 68.0; A101D: 75.5; C32: 110
- CN(NC(=O)CC(=O)NN(C)C(=S)c1ccccc1)C(=S)c1ccccc1 at 0.006 µM : A2058: 65.6; A375: 27.7; A101D: 67.2; C32: 74.0
- Oc1cc(-c2nc(-c3ccccc3)[nH]c2-c2ccncc2)ccc1Cl at 0.2 µM : A2058: 96.9; A375: 90.3; A101D: 102; C32: 83.2; 501mel: 65.9
- CS(=O)(=O)c1ccc(C(=O)Nc2ccc(Cl)c(-c3ccccn3)c2)c(Cl)c1 at 1 µM : A2058: 91.5; A375: 84.1; A101D: 110; C32: 95.1
- O=C(O)C(=O)Nc1sc2c(c1C(=O)O)CCNC2 at 1.67 µM : A2058: 85.8; A375: 81.5; A101D: 103; C32: 98.1; 501mel: 100
- N.N.[Cl][Pt][Cl] at 1.6 µM : A2058: 101; A375: 118; A101D: 112; C32: 97.3
- Nc1cccc2c1CN(C1CCC(=O)NC1=O)C2=O (configuration not stated) at 1 µM : A2058: 100; A375: 101; A101D: 116; C32: 107

Some entries from above, unchanged:

{"second drug": "O=C(O)C(=O)Nc1sc2c(c1C(=O)O)CCNC2 at 1.67 µM", "A2058": 85.8, "A375": 81.5, "A101D": 103, "C32": 98.1, "501mel": 100}
{"second drug": "C#Cc1cccc(Nc2ncnc3cc(OCCOC)c(OCCOC)cc23)c1 at 0.8 µM", "A2058": 104, "A375": 89.2, "A101D": 90.7, "C32": 89.6}